From the supplement of paper PMC7666118 come the findings set out here.

Sequences of proteins named here, by UniProt entry; tags and fusion partners are left off. A change or cut given only in a name is not applied to a line headed by its entry.
UniProt Q9NWX5: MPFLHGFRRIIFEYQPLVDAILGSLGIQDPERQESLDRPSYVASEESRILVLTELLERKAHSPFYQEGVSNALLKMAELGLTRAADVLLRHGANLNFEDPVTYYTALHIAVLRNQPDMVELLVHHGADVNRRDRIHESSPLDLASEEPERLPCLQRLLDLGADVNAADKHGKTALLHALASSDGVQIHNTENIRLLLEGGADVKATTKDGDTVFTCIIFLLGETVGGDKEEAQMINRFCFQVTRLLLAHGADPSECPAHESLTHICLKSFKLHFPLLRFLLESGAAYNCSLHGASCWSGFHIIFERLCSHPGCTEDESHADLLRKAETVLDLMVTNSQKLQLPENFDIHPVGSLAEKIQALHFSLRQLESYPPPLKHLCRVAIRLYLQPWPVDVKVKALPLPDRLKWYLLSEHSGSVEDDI
UniProt Q86WA6: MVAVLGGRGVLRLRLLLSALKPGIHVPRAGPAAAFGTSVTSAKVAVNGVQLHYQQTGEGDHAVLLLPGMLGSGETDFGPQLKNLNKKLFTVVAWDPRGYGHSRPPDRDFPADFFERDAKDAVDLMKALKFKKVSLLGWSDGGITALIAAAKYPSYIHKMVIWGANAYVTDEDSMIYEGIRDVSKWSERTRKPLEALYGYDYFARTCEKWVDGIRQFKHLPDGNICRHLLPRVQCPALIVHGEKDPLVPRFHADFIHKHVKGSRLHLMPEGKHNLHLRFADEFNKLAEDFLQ
UniProt O95870: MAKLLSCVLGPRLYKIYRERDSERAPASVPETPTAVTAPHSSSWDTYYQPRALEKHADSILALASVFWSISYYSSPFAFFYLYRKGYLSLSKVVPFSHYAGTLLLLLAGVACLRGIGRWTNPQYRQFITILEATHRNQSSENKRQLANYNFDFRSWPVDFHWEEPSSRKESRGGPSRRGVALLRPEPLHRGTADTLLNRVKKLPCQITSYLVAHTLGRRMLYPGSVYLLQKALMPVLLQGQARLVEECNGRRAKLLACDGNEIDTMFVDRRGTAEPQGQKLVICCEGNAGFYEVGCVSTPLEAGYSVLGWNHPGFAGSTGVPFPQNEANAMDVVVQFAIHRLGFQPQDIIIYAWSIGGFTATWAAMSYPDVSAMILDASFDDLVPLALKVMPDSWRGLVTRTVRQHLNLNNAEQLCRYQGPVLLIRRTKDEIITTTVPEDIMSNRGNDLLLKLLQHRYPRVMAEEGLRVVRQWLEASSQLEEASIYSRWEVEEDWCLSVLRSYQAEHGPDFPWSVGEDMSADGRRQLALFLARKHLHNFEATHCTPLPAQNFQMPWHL
UniProt P07738: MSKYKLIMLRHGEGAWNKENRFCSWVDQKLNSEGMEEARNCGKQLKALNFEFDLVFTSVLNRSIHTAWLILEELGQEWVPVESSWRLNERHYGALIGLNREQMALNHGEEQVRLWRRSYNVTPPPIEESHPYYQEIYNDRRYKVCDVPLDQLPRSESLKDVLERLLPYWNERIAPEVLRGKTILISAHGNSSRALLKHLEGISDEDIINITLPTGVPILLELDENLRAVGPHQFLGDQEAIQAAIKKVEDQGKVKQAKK
UniProt Q8N8R7: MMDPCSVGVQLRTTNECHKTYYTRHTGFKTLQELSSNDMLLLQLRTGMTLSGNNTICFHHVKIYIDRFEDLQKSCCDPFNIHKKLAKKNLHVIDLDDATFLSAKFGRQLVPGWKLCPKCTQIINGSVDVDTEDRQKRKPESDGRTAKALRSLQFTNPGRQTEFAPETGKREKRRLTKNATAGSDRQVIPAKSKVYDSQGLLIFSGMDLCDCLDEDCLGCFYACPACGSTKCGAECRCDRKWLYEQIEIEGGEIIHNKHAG
UniProt Q12982: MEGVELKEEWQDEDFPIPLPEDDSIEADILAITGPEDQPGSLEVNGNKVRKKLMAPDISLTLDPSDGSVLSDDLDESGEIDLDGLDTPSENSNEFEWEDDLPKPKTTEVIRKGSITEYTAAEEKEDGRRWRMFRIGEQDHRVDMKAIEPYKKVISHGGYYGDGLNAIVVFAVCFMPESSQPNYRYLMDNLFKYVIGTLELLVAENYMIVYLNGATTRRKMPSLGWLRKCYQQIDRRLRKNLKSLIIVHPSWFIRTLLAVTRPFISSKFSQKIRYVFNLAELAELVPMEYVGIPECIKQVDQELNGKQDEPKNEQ
UniProt P43251: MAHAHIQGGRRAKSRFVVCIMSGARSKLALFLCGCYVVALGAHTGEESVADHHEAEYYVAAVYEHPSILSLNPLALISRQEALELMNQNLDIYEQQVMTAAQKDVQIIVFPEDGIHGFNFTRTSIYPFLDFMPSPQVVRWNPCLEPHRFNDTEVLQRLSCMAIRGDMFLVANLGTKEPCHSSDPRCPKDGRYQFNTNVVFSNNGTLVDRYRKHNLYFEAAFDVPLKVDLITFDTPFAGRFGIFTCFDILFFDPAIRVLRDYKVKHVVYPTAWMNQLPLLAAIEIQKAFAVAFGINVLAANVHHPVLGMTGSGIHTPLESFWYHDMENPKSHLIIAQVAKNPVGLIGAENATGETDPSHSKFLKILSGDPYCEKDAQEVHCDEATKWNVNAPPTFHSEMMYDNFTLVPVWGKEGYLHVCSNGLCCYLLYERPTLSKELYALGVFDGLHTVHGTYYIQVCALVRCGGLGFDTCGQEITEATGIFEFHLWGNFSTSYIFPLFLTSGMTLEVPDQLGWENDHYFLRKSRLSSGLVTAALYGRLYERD
UniProt Q15904, whole entry: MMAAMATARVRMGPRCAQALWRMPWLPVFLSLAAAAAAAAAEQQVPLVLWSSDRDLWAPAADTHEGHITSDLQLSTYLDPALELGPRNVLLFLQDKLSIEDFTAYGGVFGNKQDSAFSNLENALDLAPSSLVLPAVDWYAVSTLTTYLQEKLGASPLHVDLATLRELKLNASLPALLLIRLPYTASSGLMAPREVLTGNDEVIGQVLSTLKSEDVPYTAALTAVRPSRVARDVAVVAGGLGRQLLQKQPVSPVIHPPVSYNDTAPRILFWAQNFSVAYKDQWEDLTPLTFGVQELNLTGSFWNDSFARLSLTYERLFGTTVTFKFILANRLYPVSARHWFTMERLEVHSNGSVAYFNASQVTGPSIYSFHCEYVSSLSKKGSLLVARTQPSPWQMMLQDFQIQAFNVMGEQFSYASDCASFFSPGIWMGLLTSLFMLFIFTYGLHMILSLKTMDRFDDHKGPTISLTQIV
UniProt Q8WWM7: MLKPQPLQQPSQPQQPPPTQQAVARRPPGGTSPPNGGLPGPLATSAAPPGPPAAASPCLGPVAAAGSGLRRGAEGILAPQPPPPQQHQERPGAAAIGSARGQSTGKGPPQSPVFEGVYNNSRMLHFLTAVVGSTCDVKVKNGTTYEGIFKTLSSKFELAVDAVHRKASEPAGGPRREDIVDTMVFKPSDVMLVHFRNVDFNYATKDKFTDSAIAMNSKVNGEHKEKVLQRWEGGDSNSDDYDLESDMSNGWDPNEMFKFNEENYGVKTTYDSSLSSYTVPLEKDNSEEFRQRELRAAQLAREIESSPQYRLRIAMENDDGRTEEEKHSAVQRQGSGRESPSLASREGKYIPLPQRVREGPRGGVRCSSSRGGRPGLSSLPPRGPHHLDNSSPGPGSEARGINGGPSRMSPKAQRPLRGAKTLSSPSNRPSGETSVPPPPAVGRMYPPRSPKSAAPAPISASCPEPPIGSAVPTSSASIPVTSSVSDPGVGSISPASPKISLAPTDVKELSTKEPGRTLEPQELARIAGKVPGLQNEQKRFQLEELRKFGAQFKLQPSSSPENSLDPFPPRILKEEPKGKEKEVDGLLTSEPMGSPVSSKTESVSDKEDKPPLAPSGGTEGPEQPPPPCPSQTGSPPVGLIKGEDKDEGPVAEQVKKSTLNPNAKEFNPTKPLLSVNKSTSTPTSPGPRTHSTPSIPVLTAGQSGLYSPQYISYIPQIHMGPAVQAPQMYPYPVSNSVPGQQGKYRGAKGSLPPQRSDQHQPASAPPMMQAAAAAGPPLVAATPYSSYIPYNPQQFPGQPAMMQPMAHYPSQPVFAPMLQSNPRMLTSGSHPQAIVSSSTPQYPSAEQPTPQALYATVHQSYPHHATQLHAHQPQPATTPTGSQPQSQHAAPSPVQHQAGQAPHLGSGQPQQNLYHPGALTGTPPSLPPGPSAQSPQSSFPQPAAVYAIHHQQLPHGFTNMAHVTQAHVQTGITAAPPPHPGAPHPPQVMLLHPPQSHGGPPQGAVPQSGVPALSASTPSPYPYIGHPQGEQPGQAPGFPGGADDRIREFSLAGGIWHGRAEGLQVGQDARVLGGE
UniProt Q92934: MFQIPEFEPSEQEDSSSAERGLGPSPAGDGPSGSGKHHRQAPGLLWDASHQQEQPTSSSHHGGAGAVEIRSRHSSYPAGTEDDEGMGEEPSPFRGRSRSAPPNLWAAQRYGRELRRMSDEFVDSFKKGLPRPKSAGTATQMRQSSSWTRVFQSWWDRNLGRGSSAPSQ
UniProt Q99941: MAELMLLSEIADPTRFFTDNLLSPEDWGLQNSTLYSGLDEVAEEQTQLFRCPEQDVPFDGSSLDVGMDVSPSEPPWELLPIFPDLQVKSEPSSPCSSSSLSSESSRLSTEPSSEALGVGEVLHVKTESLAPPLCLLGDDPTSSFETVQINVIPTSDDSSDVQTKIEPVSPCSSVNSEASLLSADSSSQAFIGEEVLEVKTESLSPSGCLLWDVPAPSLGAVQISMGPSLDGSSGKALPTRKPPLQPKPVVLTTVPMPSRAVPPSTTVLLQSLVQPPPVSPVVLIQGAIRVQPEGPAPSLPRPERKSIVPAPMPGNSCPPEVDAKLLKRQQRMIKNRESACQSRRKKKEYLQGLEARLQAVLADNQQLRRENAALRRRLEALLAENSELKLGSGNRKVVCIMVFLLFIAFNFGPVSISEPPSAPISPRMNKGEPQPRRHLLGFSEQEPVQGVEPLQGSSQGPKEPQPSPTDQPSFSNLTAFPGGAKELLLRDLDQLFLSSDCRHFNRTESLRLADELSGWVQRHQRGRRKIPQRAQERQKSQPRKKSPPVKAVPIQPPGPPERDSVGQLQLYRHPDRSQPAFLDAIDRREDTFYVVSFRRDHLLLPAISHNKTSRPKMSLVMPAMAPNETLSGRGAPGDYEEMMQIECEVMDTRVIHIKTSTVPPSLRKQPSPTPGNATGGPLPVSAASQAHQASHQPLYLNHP
UniProt Q5TC12: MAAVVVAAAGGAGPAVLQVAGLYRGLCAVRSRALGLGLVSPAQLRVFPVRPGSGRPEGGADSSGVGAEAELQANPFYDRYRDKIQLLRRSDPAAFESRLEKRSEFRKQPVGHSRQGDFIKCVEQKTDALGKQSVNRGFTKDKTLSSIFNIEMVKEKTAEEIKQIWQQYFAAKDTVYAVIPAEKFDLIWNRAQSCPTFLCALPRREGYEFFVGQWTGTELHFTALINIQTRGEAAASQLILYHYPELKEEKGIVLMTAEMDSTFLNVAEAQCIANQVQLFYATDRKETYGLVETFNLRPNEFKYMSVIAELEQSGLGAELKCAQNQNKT
UniProt P61421, whole entry: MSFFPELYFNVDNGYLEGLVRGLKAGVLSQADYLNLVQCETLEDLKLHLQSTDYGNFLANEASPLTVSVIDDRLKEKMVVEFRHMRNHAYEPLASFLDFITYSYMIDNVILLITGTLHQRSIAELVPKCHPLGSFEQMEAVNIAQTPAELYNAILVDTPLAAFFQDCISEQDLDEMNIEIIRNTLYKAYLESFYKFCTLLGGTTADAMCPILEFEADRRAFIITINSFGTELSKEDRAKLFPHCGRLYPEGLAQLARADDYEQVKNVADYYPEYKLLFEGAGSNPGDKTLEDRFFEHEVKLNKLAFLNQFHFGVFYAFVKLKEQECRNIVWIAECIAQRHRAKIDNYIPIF
UniProt P17544: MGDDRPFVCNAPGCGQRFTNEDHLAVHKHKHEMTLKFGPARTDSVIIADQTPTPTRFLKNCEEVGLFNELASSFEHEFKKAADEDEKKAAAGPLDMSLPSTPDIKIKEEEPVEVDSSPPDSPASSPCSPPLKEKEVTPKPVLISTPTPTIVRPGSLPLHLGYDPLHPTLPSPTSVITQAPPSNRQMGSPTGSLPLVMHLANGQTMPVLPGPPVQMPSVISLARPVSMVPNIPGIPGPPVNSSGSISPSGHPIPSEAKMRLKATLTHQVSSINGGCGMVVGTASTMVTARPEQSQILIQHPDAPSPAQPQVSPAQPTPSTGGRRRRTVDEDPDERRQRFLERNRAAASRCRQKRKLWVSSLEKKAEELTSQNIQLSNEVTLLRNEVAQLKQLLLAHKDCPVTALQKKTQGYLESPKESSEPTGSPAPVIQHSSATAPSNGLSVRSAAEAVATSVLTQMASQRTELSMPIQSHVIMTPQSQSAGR
UniProt Q8TDN6: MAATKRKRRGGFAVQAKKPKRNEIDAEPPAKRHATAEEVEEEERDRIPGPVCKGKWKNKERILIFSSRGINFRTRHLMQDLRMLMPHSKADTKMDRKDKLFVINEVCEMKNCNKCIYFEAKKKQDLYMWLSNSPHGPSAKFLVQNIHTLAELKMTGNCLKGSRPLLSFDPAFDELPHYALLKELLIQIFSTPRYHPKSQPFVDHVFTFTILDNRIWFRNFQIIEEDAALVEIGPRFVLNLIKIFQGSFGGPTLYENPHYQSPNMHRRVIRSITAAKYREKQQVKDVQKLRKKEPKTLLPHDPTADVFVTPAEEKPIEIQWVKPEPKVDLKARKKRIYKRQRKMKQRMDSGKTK

This is one part of the list.

Compound in the test: COc1ccc(Cn2ccc3ccc(C(=O)NO)cc32)cc1
The experiment in a line: dose-dependent thermal stabilisation call (2D-TPP, DLPTP, 10% FDR) (binary (1 = stabilised)); higher = stabilised by the compound. The settings on record: system: HL-60 intact cells; concentration range 0.04-10 µM.
As for ASB6 (UniProt Q9NWX5), the “dose-dependent thermal stabilisation call” value is inactive: 0.

BPHL (UniProt Q86WA6): the “dose-dependent thermal stabilisation call” value is inactive: 0.

For ATP6 (UniProt P00846), the “dose-dependent thermal stabilisation call” value was inactive: 0.

Turning to BAT5 (UniProt O95870), the “dose-dependent thermal stabilisation call” value is inactive: 0.

Consider B3GALNT2 (UniProt Q8NCR0), for which the “dose-dependent thermal stabilisation call” value is inactive: 0.

On to ARV1 (UniProt Q9H2C2), for which the “dose-dependent thermal stabilisation call” value was inactive: 0.

As for BAG1 (UniProt Q99933), the “dose-dependent thermal stabilisation call” value is inactive: 0.

Take BPGM (UniProt P07738): the “dose-dependent thermal stabilisation call” value is inactive: 0.

In the case of C11ORF46 (UniProt Q8N8R7), the “dose-dependent thermal stabilisation call” value was inactive: 0.

For BSCL2 (UniProt Q96G97), the “dose-dependent thermal stabilisation call” value is inactive: 0.

For BNIP2 (UniProt Q12982), the “dose-dependent thermal stabilisation call” value was inactive: 0.

For ATPAF2 (UniProt Q8N5M1), the “dose-dependent thermal stabilisation call” value was inactive: 0.

Turning to B3GALTL (UniProt Q6Y288), the “dose-dependent thermal stabilisation call” value was inactive: 0.

Turning to ATE1 (UniProt O95260), the “dose-dependent thermal stabilisation call” value is inactive: 0.

Take ATP1A1 (UniProt P05023): the “dose-dependent thermal stabilisation call” value was inactive: 0.

With BTD (UniProt P43251), the “dose-dependent thermal stabilisation call” value was inactive: 0.

ATXN2 (UniProt Q99700): the “dose-dependent thermal stabilisation call” value is inactive: 0.

ATP13A1 (UniProt Q9HD20): the “dose-dependent thermal stabilisation call” value is inactive: 0.

ATM (UniProt Q13315): the “dose-dependent thermal stabilisation call” value is inactive: 0.

On to BTBD1 (UniProt Q9H0C5), for which the “dose-dependent thermal stabilisation call” value was inactive: 0.

In the case of BCKDHB (UniProt P21953), the “dose-dependent thermal stabilisation call” value is inactive: 0.

ARPC4 (UniProt P59998): the “dose-dependent thermal stabilisation call” value is inactive: 0.

In the case of ARMC1 (UniProt Q9NVT9), the “dose-dependent thermal stabilisation call” value is inactive: 0.

With BUB1 (UniProt O43683), the “dose-dependent thermal stabilisation call” value was inactive: 0.

As to ATP6AP1 (UniProt Q15904), the “dose-dependent thermal stabilisation call” value is inactive: 0.

Regarding BRP44 (UniProt O95563), the “dose-dependent thermal stabilisation call” value is inactive: 0.

On to BCAP29 (UniProt Q9UHQ4), for which the “dose-dependent thermal stabilisation call” value was inactive: 0.

Turning to ATXN2L (UniProt Q8WWM7), the “dose-dependent thermal stabilisation call” value was inactive: 0.

BAD (UniProt Q92934): the “dose-dependent thermal stabilisation call” value is inactive: 0.

For ATF6B (UniProt Q99941), the “dose-dependent thermal stabilisation call” value was inactive: 0.

Take BCL2L13 (UniProt Q9BXK5): the “dose-dependent thermal stabilisation call” value is inactive: 0.

Consider ATPAF1 (UniProt Q5TC12), for which the “dose-dependent thermal stabilisation call” value was inactive: 0.

On to C11ORF58 (UniProt O00193), for which the “dose-dependent thermal stabilisation call” value was inactive: 0.

Consider ATP6V0D1 (UniProt P61421), for which the “dose-dependent thermal stabilisation call” value was inactive: 0.

As to C12ORF10 (UniProt Q9HB07), the “dose-dependent thermal stabilisation call” value is inactive: 0.

In the case of ATF7 (UniProt P17544), the “dose-dependent thermal stabilisation call” value is inactive: 0.

In the case of BXDC2 (UniProt Q8TDN6), the “dose-dependent thermal stabilisation call” value was inactive: 0.

BAZ2A (UniProt Q9UIF9): the “dose-dependent thermal stabilisation call” value is inactive: 0.
